This passage reports binding results from publication PMC6548343.

Amino acid sequences for entries named in this document (tags omitted). Residues count along the entry.
UniProt P53115, residues 356-691: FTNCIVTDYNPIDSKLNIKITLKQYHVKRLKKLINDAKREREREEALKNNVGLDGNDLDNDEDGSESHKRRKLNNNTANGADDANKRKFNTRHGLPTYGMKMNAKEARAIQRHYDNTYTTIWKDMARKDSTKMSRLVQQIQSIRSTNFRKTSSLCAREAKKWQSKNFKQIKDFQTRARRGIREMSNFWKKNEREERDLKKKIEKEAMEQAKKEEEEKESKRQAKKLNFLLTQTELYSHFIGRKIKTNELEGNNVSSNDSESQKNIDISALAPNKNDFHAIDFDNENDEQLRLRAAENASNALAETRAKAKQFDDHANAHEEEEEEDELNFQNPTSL
UniProt P35189: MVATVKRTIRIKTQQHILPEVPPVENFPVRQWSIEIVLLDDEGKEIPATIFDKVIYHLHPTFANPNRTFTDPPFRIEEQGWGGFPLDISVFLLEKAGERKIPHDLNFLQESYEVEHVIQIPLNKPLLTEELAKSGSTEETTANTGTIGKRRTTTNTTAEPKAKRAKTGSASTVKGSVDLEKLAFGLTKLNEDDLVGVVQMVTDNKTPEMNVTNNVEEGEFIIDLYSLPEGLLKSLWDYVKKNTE

No constants are given. Whether binding was seen depends on the method and setting. Some binding calls cover weakened binding; strength is not graded here.

The target in the assay is Ino80 (356–691 aa, named as N-FLAG) (S. cerevisiae) (UniProt P53115). Put plainly: affinity co-purification (FLAG resin, then Mono Q) with SDS-PAGE or EM of the fractions; whole-cell extract of S. cerevisiae, 30%–55% ammonium sulfate cut, FLAG resin 2 h at 4°C, washes with 500 mM and 50 mM ammonium sulfate, elution with 3×FLAG peptide, Mono Q gradient 100–1000 mM ammonium sulfate.

As to “TATA-binding-protein-associated factor 14 (Taf14) (from UniProt P35189 1-244)”, the binding entry is “binds”.
